The target in test [1] is T1, Flag-USP8 (UniProt Q80U87).
T1 sequence: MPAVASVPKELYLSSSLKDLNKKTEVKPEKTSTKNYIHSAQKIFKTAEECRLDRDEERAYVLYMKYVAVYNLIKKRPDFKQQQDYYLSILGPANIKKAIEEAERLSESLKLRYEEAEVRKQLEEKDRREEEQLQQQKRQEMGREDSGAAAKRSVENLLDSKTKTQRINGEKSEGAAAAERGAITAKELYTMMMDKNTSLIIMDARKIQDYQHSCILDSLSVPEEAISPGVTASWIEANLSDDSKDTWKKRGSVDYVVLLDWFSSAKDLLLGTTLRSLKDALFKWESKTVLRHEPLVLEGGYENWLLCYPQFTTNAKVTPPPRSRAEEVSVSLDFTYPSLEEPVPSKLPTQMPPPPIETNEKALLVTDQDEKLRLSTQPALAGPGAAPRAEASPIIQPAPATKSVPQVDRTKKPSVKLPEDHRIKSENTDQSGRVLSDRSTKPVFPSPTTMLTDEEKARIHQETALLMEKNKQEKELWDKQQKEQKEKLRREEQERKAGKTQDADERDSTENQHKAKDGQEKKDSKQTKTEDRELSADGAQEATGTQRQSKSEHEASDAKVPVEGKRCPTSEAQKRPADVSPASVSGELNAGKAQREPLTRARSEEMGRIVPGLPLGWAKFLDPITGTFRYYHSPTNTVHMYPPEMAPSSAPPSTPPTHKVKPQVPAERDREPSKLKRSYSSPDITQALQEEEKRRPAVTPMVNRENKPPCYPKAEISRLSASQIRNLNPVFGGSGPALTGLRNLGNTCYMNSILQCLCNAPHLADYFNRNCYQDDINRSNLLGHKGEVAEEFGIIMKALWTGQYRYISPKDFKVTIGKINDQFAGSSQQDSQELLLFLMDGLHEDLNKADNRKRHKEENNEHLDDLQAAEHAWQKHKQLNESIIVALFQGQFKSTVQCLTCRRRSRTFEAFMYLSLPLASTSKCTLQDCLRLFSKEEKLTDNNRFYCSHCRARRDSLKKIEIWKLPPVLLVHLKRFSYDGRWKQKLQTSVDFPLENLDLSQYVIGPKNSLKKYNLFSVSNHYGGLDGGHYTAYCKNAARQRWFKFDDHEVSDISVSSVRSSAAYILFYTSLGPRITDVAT
Nature of the test: co-IP; HEK293T cells co-transfected with GFP-CHMP1B and Flag-USP8 constructs; lysates immunoprecipitated with anti-GFP or anti-Flag antibodies, immunoblot with anti-GFP or anti-Flag.

Test [2] addresses T2, Flag-USP8^C748A (UniProt Q80U87).
T2 sequence: T1 sequence with C748A
Described as above.

In test [3] the target is T3, Myc-VN-USP8 (human) (UniProt P40818).
T3 sequence: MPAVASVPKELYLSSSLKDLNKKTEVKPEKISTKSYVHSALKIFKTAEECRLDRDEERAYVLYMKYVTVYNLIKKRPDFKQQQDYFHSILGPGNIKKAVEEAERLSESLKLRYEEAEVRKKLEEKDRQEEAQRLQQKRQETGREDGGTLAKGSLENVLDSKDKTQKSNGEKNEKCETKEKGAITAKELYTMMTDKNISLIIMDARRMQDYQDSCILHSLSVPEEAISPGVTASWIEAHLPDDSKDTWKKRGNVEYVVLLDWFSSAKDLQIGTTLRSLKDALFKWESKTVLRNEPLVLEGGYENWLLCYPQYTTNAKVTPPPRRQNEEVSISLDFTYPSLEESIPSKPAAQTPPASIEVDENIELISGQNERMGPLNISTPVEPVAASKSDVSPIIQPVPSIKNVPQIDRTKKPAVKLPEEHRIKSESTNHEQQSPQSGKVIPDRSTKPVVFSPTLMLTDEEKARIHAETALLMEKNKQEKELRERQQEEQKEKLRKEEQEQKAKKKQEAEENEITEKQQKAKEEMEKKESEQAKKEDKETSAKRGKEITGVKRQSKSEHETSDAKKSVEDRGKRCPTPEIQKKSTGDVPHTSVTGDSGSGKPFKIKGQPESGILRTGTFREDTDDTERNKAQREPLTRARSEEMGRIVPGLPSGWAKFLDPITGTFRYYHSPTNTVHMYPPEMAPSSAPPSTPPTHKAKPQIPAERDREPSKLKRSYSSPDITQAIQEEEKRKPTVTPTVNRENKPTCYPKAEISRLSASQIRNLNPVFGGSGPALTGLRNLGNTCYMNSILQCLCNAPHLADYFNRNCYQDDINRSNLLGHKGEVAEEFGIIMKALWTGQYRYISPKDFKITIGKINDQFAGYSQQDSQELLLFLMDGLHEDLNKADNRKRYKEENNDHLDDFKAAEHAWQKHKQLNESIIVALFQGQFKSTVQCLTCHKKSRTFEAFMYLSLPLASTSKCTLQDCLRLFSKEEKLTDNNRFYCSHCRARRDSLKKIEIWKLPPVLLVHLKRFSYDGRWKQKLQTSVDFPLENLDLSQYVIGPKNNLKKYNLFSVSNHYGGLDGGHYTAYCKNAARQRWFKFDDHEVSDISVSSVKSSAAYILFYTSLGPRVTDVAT
The test can be described thus: split reporter; Venus complementation; fixed HeLa cells co-transfected with Myc-VN-USP8 and HA-VC-CHMP1B constructs; Venus spots counted per Myc and HA positive cell.

Positions count from the first letter of the chain named. No constants are given. Whether binding was seen depends on the method and setting. In cells and extracts the contact can be indirect. Some entries that bind do so weakly or less than the wild type. Tags and fused reporters may be left off the sequences shown.

Our source for the binding values is publication PMC6033466.

B1: GFP-CHMP1B α-helices 4, 5 and 6 (residues 105 to 199) (domain or fragment, UniProt Q7LBR1 105-199)
chain: TMNLEKISALMDKFEHQFETLDVQTQQMEDTMSSTTTLTTPQNQVDMLLQEMADEAGLDLNMELPQGQTGSVGTSVASAEQDELSQRLARLRDQV
For B1, in test [1], the binding entry was “binds”.

B2: GFP-CHMP1B (full length) (protein, UniProt Q7LBR1 1-199)
chain: MSNMEKHLFNLKFAAKELSRSAKKCDKEEKAEKAKIKKAIQKGNMEVARIHAENAIRQKNQAVNFLRMSARVDAVAARVQTAVTMGKVTKSMAGVVKSMDATLKTMNLEKISALMDKFEHQFETLDVQTQQMEDTMSSTTTLTTPQNQVDMLLQEMADEAGLDLNMELPQGQTGSVGTSVASAEQDELSQRLARLRDQV
Consider B2, for which the binding result in test [2] and in test [1] was “binds” in each case.

B3: HA-VC-CHMP1B (full length) (protein, UniProt Q7LBR1 1-199)
chain: B2 chain
With B3, the binding entry in test [3] was “binds”.
